This experiment has as its target super active rat leptin antagonist (D23L/L39A/D40A/F41A mutant), non-pegylated (rat) (UniProt P50596). In words: SEC; analytical Superdex 75 column pre-equilibrated with TN buffer, pH 8, native conditions; both purified.

No constants are given. Whether binding was seen depends on the method and setting. Tags and fused reporters may be left off the sequences shown.

B1: super active rat leptin antagonist (D23L/L39A/D40A/F41A mutant), non-pegylated (ligand)
chain: AVPIHKVQDDTKTLIKTIVTRINLISHTQSVSARQRVTGAAAIPGLHPILSLSKMDQTLAVYQQILTSLPSQNVLQIAHDLENLRDLLHLLAFSKSCSLPQTRGLQKPESLDGVLEASLYSTEVVALSRLQGSLQDILQQLDLSPEC
notes: extra Ala left at the N-terminus from an extra Met-Ala (Met is cleaved by the bacteria); leptin, rat; about 16 kDa by SDS-PAGE; also called SRLA
In the case of B1, the binding entry is “no binding”.
